Results are given in words; binding and its absence hold for the method and conditions named. In cells and extracts the contact can be indirect. Some results given as binding are weak or reduced against the parent protein; the word gives no strength. Sequences can lack the tags named with a protein.

Protein sequences, listed by entry. Tags and fused reporters are not part of them.
UniProt P09874: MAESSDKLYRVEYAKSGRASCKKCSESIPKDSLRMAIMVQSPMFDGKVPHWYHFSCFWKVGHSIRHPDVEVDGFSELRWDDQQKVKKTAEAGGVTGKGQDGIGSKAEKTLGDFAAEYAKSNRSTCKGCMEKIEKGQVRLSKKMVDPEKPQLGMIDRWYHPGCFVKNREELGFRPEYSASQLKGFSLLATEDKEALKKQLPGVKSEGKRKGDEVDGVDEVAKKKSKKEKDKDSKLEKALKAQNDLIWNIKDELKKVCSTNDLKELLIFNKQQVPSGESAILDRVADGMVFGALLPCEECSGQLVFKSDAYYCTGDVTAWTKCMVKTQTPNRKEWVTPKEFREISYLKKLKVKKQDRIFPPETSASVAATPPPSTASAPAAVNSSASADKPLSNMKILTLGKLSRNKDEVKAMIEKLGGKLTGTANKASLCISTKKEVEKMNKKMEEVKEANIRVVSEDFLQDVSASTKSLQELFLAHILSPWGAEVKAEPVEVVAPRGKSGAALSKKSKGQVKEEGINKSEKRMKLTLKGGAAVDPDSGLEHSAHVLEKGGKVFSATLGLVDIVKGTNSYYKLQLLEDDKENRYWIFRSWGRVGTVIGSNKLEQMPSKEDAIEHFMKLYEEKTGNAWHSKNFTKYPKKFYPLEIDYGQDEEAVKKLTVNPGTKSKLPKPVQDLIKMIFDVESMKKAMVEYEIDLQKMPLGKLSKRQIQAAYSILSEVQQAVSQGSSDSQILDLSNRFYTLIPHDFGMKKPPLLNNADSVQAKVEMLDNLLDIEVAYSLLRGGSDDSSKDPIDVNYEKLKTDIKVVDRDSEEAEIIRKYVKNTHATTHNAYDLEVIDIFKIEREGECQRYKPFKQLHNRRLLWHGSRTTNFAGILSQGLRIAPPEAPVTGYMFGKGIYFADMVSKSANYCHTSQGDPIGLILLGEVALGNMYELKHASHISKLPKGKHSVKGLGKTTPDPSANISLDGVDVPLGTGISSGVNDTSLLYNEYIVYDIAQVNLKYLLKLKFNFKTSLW
UniProt Q9Y5B9: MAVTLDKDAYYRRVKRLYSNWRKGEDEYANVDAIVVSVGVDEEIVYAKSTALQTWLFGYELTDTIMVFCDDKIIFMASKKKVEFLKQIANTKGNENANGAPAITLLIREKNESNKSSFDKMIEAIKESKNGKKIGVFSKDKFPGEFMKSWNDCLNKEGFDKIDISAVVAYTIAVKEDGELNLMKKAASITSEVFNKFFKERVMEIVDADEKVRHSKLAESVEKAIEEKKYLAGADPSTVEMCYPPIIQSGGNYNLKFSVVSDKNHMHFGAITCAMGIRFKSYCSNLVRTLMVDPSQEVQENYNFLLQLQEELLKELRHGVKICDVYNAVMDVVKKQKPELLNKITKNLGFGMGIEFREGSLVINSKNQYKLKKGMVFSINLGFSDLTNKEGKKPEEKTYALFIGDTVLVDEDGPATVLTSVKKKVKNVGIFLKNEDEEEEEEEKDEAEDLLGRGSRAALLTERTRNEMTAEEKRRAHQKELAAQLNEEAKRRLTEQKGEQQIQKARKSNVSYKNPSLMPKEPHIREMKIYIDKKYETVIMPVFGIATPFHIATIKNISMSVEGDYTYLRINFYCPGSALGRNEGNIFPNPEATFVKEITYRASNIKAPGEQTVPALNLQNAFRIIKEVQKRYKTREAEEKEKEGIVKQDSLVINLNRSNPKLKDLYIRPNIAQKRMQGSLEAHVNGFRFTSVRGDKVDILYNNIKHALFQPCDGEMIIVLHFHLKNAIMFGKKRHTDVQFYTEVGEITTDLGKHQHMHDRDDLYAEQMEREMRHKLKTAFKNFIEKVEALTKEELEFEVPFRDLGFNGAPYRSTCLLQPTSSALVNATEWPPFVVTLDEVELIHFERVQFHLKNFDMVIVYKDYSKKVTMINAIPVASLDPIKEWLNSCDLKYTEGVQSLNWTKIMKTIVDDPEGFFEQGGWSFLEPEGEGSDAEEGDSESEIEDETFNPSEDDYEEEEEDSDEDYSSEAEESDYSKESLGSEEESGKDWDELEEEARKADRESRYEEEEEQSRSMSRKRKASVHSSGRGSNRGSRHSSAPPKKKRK

This assay addresses T1, FLAG-HA-SMYD3 (SET and MYND domain containing protein 3) (human) (UniProt Q9H7B4).
T1 sequence: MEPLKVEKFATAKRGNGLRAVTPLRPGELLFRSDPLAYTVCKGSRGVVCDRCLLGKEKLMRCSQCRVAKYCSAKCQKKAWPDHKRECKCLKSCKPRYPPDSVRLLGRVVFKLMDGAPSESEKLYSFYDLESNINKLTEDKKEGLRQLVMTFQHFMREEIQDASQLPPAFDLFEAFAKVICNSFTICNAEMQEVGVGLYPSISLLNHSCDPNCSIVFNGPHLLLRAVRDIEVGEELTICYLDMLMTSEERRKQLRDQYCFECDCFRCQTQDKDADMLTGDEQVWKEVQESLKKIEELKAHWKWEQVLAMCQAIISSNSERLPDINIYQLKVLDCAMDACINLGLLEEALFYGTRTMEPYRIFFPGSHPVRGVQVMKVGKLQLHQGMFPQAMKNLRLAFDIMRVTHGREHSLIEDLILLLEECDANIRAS
As to the kind of experiment: co-IP; the purified FLAG-HA-SMYD3 sample of Figure 2A analysed by immunoblotting; the methods tell of FLAG-tagged SMYD3 in HCT116 whole cell lysates, anti-FLAG Sepharose beads overnight at 4°C, blots with anti-PARP1, anti-SPT16, anti-Nucleolin, anti-H2B and anti-PC4.

For PARP1 (from UniProt P09874 1-1014), the binding entry is reported as “binds”.

Consider SPT16 (from UniProt Q9Y5B9 1-1047), for which the binding result is “binds”.

Source of the values: publication PMC4605318.
